According to the supplement of paper PMC8866396:
± gives the standard deviation of the averaged measurements. The list shows a part of the results. This data set is noisy: repeats of one test often differ as much as different tests do.

Test system: IL-6-GFP PC-9
Assay: IL-6-GFP fluorescence relative to DMSO control (fraction of control); higher = more IL-6-GFP expression
Settings: compound concentration: 10 uM; treatment time: 48 h
Description: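 IL-6-GFP-overexpressing PC-9 and PC-9GR EGFR-mutant lung cancer cells (3000 cells/well, 96-well) were treated for 48 h with each compound of the Selleck L2000 library at 10 uM. IL-6-GFP fluorescence was read on a high-content screening system, and viability by CCK-8 absorbance on a parallel plate set. Each value was normalised as compound well / DMSO control well; two independent replicates.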

| Compound | IL-6-GFP fluorescence |
| --- | --- |
| CCCC(=O)OC1(C(=O)CO)CCC2C3CCC4=CC(=O)CCC4(C)C3C(O)CC21C (stereo not drawn) [Hydrocortisone butyrate] | 0.8713 ± 0.0047 |
| CC(=O)c1c(C)c2cnc(Nc3ccc(N4CCNCC4)cn3)nc2n(C2CCCC2)c1=O.Cl | 0.826 ± 0.019 |
| CC(C)(C)c1ccc(C(=O)CCCN2CCC(OC(c3ccccc3)c3ccccc3)CC2)cc1 [Ebastine] | 0.968 ± 0.44 |
| C#Cc1cccc(Nc2ncnc3cc4c(cc23)OCCOCCOCCO4)c1 [Icotinib] | 0.844 ± 0.17 |
| Cl.c1ccc(CN(CC2=NCCN2)c2ccccc2)cc1 [Antazoline HCl] | 0.879 ± 0.1 |
| CC(=O)OCC(=O)C1(O)CCC2C3CCC4=CC(=O)CCC4(C)C3C(=O)CC21C (stereo not drawn) [Cortisone acetate] | 0.795 ± 0.071 |
| CC(Cn1ccc(-c2ccc(C#N)c(Cl)c2)n1)NC(=O)c1cc(C(C)O)[nH]n1 (stereo not drawn) [Darolutamide (ODM-201)] | 1.03 ± 0.031 |
| CC1(C)OC2CC3C4CCC5=CC(=O)C=CC5(C)C4(F)C(O)CC3(C)C2(C(=O)CO)O1 (stereo not drawn) [Triamcinolone Acetonide] | 0.991 ± 0.09 |
| COc1cc2ncnc(Nc3ccc(F)c(Cl)c3)c2cc1OCCCN1CCOCC1.Cl [Gefitinib hydrochloride] | 0.961 ± 0.018 |
| CC(Nc1ncnc2[nH]cnc12)c1cc2cccc(Cl)c2c(=O)n1-c1ccccc1 (stereo not drawn) [Duvelisib (IPI-145, INK1197)] | 0.913 ± 0.023 |
| Cc1nccn1CC1CCc2c(c3ccccc3n2C)C1=O.Cl (stereo not drawn) [Ondansetron HCl] | 0.822 ± 0.092 |
| O=C([O-])Cc1ccccc1Nc1c(Cl)cccc1Cl.[Na+] [Diclofenac Sodium] | 0.795 ± 0.18 |
| CNC(=O)C(NC(=O)C(CC(C)C)C(O)C(=O)NO)C(C)(C)C (stereo not drawn) [Marimastat (BB-2516)] | 0.908 ± 0.071 |
| Cc1ccc(C(=O)c2ccc(CC(=O)O)n2C)cc1 [Tolmetin] | 0.942 ± 0.12 |
| CN(C)CCOC(c1ccc(Cl)cc1)c1ccccn1.O=C(O)/C=C\C(=O)O (stereo not drawn) [CarbinoxaMine Maleate] | 1.006 ± 0.0083 |
| Cc1nnc(C(=O)NC(C)(C)c2nc(C(=O)NCc3ccc(F)cc3)c(O)c(=O)n2C)o1 [Raltegravir (MK-0518)] | 0.857 ± 0.18 |
| CCCC(=O)OC1(C(=O)CCl)C(C)CC2C3CCC4=CC(=O)C=CC4(C)C3(F)C(=O)CC21C (stereo not drawn) [clobetasone butyrate] | 0.743 ± 0.014 |
| Cc1ccc(C(=O)Nc2ccc(CN3CCN(C)CC3)c(C(F)(F)F)c2)cc1C#Cc1cnc2cccnn12 | 2.59 ± 0.28 |
| C=C1CCC2C(C)(CO)C(O)CCC2(C)C1C/C=C1\C=COC1=O (stereo not drawn) [Dehydroandrographolide] | 0.879 ± 0.017 |
| CNC(=O)c1ccccc1Sc1ccc2c(/C=C/c3ccccn3)n[nH]c2c1 [Axitinib] | 1.068 ± 0.0028 |
| Cn1c(=O)cc(N2CCCC(N)C2)n(Cc2cc(F)ccc2C#N)c1=O.O=C(O)CCC(=O)O (stereo not drawn) [Trelagliptin succinate] | 0.817 ± 0.12 |
| CC(C)(C)c1nc(-c2cccc(NS(=O)(=O)c3c(F)cccc3F)c2F)c(-c2ccnc(N)n2)s1 | 0.748 ± 0.3 |
| CN1CCC(NC(=O)Nc2ccc(C#N)cc2)CC1c1nc2ccccc2[nH]1 (stereo not drawn) | 0.95 ± 0.066 |
| CN1CCN(C(c2ccccc2)c2ccccc2)CC1.Cl.Cl [Cyclizine 2HCl] | 0.912 ± 0.011 |
| CCN(CC)CCNC(=O)c1c(C)[nH]c(/C=C2\C(=O)Nc3ccc(F)cc32)c1C.O=C(O)CC(O)C(=O)O [Sunitinib Malate] | 1.26 ± 0.19 |
| Cc1cn(-c2cc(NC(=O)c3ccc(C)c(Nc4nccc(-c5cnccn5)n4)c3)cc(C(F)(F)F)c2)cn1 [Radotinib] | 0.751 ± 0.33 |
| CC(C(=O)O)c1ccc2c(c1)[nH]c1ccc(Cl)cc12 (stereo not drawn) [Carprofen] | 1.04 ± 0.082 |
| COc1ccc(-c2ccc3cc(C(=O)O)ccc3c2)cc1C12CC3CC(CC(C3)C1)C2 [Adapalene] | 0.795 ± 0.32 |

2 entries picked at random from those above:

| Compound | IL-6-GFP fluorescence |
| --- | --- |
| CC(Cn1ccc(-c2ccc(C#N)c(Cl)c2)n1)NC(=O)c1cc(C(C)O)[nH]n1 (stereo not drawn) [Darolutamide (ODM-201)] | 1.03 ± 0.031 |
| COc1ccc(-c2ccc3cc(C(=O)O)ccc3c2)cc1C12CC3CC(CC(C3)C1)C2 [Adapalene] | 0.795 ± 0.32 |
